The assay has as its target T1, GST-GGA3 (Golgi-associated gamma adaptin ear-containing Arf binding protein 3) (UniProt Q9NZ52).
T1 sequence: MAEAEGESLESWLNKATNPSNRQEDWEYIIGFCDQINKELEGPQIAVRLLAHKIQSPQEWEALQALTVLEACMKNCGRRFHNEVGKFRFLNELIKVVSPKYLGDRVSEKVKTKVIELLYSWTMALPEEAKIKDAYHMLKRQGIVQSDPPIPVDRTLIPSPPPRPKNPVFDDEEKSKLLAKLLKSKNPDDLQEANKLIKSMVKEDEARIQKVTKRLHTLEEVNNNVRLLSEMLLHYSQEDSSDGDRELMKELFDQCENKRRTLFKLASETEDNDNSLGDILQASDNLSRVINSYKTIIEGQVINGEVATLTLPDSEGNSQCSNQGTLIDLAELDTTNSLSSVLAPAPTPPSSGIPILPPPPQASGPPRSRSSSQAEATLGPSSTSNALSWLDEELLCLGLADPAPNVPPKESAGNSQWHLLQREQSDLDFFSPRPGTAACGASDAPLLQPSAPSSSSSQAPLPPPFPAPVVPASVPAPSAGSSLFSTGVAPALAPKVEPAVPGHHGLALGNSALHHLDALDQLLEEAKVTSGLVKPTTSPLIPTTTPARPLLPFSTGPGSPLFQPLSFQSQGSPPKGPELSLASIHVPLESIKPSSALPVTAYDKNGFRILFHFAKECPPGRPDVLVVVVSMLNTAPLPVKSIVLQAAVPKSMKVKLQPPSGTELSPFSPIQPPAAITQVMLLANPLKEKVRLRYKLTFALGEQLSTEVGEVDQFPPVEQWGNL
As to the kind of experiment: pull-down; EZ-Detect Rac1 or Arf6 activation kits; GST fusion on glutathione beads, whole cell lysates of U251 cells treated with 10 uM MIPP or DMSO for 4 h or 24 h; western blot of the protein collected on the beads; only the target purified. On the technique in general: A western blot detects proteins with antibodies after separation by electrophoresis.

Chains of the proteins cited; added tags and fusions are not shown.
UniProt P62330: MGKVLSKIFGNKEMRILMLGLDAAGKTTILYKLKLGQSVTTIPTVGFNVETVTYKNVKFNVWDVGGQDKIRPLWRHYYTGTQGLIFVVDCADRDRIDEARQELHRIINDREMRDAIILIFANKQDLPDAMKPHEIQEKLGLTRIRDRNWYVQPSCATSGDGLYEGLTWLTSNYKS

These are yes or no findings as the source states them, for the method shown. Binding seen in cells or lysates may run through a third protein. Some entries that bind do so weakly or less than the wild type. Where a sequence is shown, tags or fusion partners need not be part of it.

On to Arf6 (from UniProt P62330 1-175), for which the binding result is on record as “binds”.

(Values after paper PMC3118192.)
